No constants are given. Whether binding was seen depends on the method and setting. In cells and extracts the contact can be indirect. These calls come from enrichment with a bait or labelling near it, and not all partners need be listed.
B1: treacle protein (TCOF1) (protein, UniProt Q13428 1-1488)
chain: MAEARKRRELLPLIYHHLLRAGYVRAAREVKEQSGQKCFLAQPVTLLDIYTHWQQTSELGRKRKAEEDAALQAKKTRVSDPISTSESSEEEEEAEAETAKATPRLASTNSSVLGADLPSSMKEKAKAETEKAGKTGNSMPHPATGKTVANLLSGKSPRKSAEPSANTTLVSETEEEGSVPAFGAAAKPGMVSAGQADSSSEDTSSSSDETDVEGKPSVKPAQVKASSVSTKESPARKAAPAPGKVGDVTPQVKGGALPPAKRAKKPEEESESSEEGSESEEEAPAGTRSQVKASEKILQVRAASAPAKGTPGKGATPAPPGKAGAVASQTKAGKPEEDSESSSEESSDSEEETPAAKALLQAKASGKTSQVGAASAPAKESPRKGAAPAPPGKTGPAVAKAQAGKREEDSQSSSEESDSEEEAPAQAKPSGKAPQVRAASAPAKESPRKGAAPAPPRKTGPAAAQVQVGKQEEDSRSSSEESDSDREALAAMNAAQVKPLGKSPQVKPASTMGMGPLGKGAGPVPPGKVGPATPSAQVGKWEEDSESSSEESSDSSDGEVPTAVAPAQEKSLGNILQAKPTSSPAKGPPQKAGPVAVQVKAEKPMDNSESSEESSDSADSEEAPAAMTAAQAKPALKIPQTKACPKKTNTTASAKVAPVRVGTQAPRKAGTATSPAGSSPAVAGGTQRPAEDSSSSEESDSEEEKTGLAVTVGQAKSVGKGLQVKAASVPVKGSLGQGTAPVLPGKTGPTVTQVKAEKQEDSESSEEESDSEEAAASPAQVKTSVKKTQAKANPAAARAPSAKGTISAPGKVVTAAAQAKQRSPSKVKPPVRNPQNSTVLARGPASVPSVGKAVATAAQAQTGPEEDSGSSEEESDSEEEAETLAQVKPSGKTHQIRAALAPAKESPRKGAAPTPPGKTGPSAAQAGKQDDSGSSSEESDSDGEAPAAVTSAQVIKPPLIFVDPNRSPAGPAATPAQAQAASTPRKARASESTARSSSSESEDEDVIPATQCLTPGIRTNVVTMPTAHPRIAPKASMAGASSSKESSRISDGKKQEGPATQVSKKNPASLPLTQAALKVLAQKASEAQPPVARTQPSSGVDSAVGTLPATSPQSTSVQAKGTNKLRKPKLPEVQQATKAPESSDDSEDSSDSSSGSEEDGEGPQGAKSAHTLGPTPSRTETLVEETAAESSEDDVVAPSQSLLSGYMTPGLTPANSQASKATPKLDSSPSVSSTLAAKDDPDGKQEAKPQQAAGMLSPKTGGKEAASGTTPQKSRKPKKGAGNPQASTLALQSNITQCLLGQPWPLNEAQVQASVVKVLTELLEQERKKVVDTTKESSRKGWESRKRKLSGDQPAARTPRSKKKKKLGAGEGGEASVSPEKTSTTSKGKAKRDKASGDVKEKKGKGSLGSQGAKDEPEEELQKGMGTVEGGDQSNPKSKKEKKKSDKRKKDKEKKEKKKKAKKASTKDSESPSQKKKKKKKKTAEQTV
B2: fibrillarin (FBL) (protein, UniProt P22087 1-321)
chain: MKPGFSPRGGGFGGRGGFGDRGGRGGRGGFGGGRGRGGGFRGRGRGGGGGGGGGGGGGRGGGGFHSGGNRGRGRGGKRGNQSGKNVMVEPHRHEGVFICRGKEDALVTKNLVPGESVYGEKRVSISEGDDKIEYRAWNPFRSKLAAAILGGVDQIHIKPGAKVLYLGAASGTTVSHVSDIVGPDGLVYAVEFSHRSGRDLINLAKKRTNIIPVIEDARHPHKYRMLIAMVDVIFADVAQPDQTRIVALNAHTFLRNGGHFVISIKANCIDSTASAEAVFASEVKKMQQENMKPQEQLTLEPYERDHAVVVGVYRPPPKVKN
B3: H/ACA ribonucleoprotein complex subunit DKC1 (DKC1) (protein, UniProt O60832 1-514)
chain: MADAEVIILPKKHKKKKERKSLPEEDVAEIQHAEEFLIKPESKVAKLDTSQWPLLLKNFDKLNVRTTHYTPLACGSNPLKREIGDYIRTGFINLDKPSNPSSHEVVAWIRRILRVEKTGHSGTLDPKVTGCLIVCIERATRLVKSQQSAGKEYVGIVRLHNAIEGGTQLSRALETLTGALFQRPPLIAAVKRQLRVRTIYESKMIEYDPERRLGIFWVSCEAGTYIRTLCVHLGLLLGVGGQMQELRRVRSGVMSEKDHMVTMHDVLDAQWLYDNHKDESYLRRVVYPLEKLLTSHKRLVMKDSAVNAICYGAKIMLPGVLRYEDGIEVNQEIVVITTKGEAICMAIALMTTAVISTCDHGIVAKIKRVIMERDTYPRKWGLGPKASQKKLMIKQGLLDKHGKPTDSTPATWKQEYVDYSESAKKEVVAEVVKAPQVVAEAAKTAKRKRESESESDETPPAAPQLIKKEKKKSKKDKKAKAGLESGAEPGDGDSDTTKKKKKKKKAKEVELVSE

Amino acid sequences for entries named in this document (tags omitted). A change or cut given only in a name is not applied to a line headed by its entry.
UniProt P29067: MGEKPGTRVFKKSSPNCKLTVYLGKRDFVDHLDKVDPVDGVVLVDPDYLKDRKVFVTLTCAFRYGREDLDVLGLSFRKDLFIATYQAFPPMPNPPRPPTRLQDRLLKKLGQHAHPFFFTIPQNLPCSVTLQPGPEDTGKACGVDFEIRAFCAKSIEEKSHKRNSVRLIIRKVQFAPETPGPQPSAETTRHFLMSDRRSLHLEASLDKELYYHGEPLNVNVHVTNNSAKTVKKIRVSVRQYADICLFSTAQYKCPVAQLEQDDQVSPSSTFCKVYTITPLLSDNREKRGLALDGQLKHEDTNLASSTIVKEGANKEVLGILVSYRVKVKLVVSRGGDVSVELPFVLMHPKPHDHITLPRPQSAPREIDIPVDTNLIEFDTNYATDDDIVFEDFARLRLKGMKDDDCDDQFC
UniProt Q14978: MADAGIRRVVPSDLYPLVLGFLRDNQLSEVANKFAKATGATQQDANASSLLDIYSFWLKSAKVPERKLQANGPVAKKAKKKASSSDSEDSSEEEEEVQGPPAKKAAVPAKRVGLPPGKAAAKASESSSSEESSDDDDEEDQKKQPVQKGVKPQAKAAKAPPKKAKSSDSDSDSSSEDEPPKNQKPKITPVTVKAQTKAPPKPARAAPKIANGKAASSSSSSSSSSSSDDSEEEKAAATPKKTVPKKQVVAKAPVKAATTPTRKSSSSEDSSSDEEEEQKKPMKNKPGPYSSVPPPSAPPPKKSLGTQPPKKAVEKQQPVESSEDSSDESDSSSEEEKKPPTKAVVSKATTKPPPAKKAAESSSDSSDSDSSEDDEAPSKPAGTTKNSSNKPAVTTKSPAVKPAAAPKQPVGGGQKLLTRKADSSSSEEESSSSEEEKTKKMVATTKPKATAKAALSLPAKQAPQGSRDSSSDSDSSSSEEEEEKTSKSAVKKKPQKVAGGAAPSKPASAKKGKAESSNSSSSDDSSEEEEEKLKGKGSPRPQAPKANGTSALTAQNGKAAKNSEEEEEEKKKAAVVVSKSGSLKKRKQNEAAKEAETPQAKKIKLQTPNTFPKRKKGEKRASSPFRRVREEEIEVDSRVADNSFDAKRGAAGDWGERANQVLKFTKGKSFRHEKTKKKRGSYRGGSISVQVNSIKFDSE
UniProt O00567: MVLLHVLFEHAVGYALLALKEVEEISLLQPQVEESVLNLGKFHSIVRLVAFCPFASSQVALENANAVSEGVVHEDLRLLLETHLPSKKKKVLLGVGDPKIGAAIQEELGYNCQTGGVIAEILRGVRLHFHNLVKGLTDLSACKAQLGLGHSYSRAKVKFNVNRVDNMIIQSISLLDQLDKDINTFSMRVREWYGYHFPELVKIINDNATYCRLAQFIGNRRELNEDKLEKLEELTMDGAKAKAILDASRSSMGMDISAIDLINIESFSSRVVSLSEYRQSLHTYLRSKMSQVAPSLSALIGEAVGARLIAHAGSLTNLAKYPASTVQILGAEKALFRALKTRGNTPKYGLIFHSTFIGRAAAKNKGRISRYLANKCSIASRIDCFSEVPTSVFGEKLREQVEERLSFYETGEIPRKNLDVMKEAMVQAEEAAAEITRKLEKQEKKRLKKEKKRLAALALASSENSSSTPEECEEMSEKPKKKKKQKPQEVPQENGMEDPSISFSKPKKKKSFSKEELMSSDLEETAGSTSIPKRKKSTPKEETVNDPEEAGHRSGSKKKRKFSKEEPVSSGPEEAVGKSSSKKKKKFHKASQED
UniProt P06748: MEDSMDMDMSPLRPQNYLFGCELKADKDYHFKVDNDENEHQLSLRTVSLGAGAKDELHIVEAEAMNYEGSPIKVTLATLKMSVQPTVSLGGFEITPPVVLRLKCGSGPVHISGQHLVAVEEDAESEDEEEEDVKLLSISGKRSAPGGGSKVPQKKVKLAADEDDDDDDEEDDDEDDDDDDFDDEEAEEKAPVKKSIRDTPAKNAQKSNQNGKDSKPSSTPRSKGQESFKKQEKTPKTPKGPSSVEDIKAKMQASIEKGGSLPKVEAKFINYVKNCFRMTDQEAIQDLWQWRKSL

Biological target: L395Q ARRB2-YFP (UniProt P29067)
Experiment: affinity purification with mass spectrometry; L395Q ARRB2-YFP immunoprecipitated with GFP-Trap magnetic beads (anti-GFP nanobody) from nuclear fractions of transfected HEK293 cells, precleared; heavy formaldehyde labelling, compared with WT ARRB2-YFP from cytosolic fractions (light label); LC-MS/MS

binding, binds:
nucleolar and coiled-body phosphoprotein (NOLC1) (from UniProt Q14978 1-699), nucleolar protein 56 (NOP56) (from UniProt O00567 1-594), nucleophosmin (NPM1) (from UniProt P06748 1-294), B1, B2, B3

Reference: article PMC7956682
